The text below walks through data of patent US6475781.

The chains behind the UniProt entries cited, without tags or fusion partners. Residues count along the entry.
UniProt P01127, residues 82-190: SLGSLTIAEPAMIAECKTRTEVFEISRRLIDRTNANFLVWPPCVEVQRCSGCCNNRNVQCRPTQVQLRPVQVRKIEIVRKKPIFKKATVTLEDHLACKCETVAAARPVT

The test deals with human PDGF-B (c-sis) (human) (UniProt P01127). Kind of test: immunoprecipitation of cell lysate of c-sis transformed Balb/c 3T3 cells, non-reducing SDS-PAGE.

These are yes or no findings as the source states them, for the method shown. Some entries that bind do so weakly or less than the wild type.

On to “human PDGF-B (c-sis) (from UniProt P01127 82-190) (ligand)”, for which the binding entry is “binds”.
